Data source: PubChem BioAssay AID1159579 (Peter MacCallum Cancer Centre, 2015)
The deposit covers about 2,000 reagents; shown is a part drawn at random. Over the whole deposit, 549 (27%) were called active. 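Some migration ratios are negative; siRNAs with too few cells are inactive whatever their migration ratio.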 A number with no mark means an inactive call. The numbers tell different reagents against one gene apart. Not stated in the record: the time to read-out.

- Aim: 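Find genes whose silencing alters migration of lymphatic endothelial cells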 (follow-up of hits)
- Cells: human dermal lymphatic endothelial cells
- Reagent: single siRNA against human genes, 25 nM
- Detection: 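Scratch wound imaging measuring area filled by moving cells plus nuclei number, averaged over two wells and scaled to mock-transfected controls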
- Reading the numbers: migration relative to mock: higher = more migration into the scratch; mean nuclei count: higher = more cells remaining
- Rule for the call: 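Called active when the migration ratio is 0.6 or lower (impaired) or 1.3 or higher (accelerated), but inactive whenever the mean nuclei count falls under 3300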
- Meaning of the calls: active = migration changed (impaired or accelerated); inactive = no migration change, or too few cells

no.	gene knocked down	reagent	migration relative to mock	migration and cell number class	mean nuclei count
1	SLC26A11	1	0.41 (active)	migration reduced	4904
2	SLC26A11	2	0.75	no change in migration or cell number	5678
3	SLC26A11	3	-0.08 (active)	migration reduced	4512
4	SLC26A11	4	0.58 (active)	migration reduced	5589
5	NFKBIZ	1	0.62	no change in migration or cell number	6604
6	NFKBIZ	2	0.54 (active)	migration reduced	5150
7	NFKBIZ	3	0.47 (active)	migration reduced	5810
8	NFKBIZ	4	0.87	no change in migration or cell number	5829
9	MAPKAPK2	1	0.76	no change in migration or cell number	7128
10	MAPKAPK2	2	0.69	no change in migration or cell number	5842
11	MAPKAPK2	3	0.65	no change in migration or cell number	6599
12	MAPKAPK2	4	1	no change in migration or cell number	5679
13	SH3GL1	1	0.73	no change in migration or cell number	5518
14	SH3GL1	2	0.46 (active)	migration reduced	4892
15	SH3GL1	3	0.97	no change in migration or cell number	5322
16	SH3GL1	4	0.68	no change in migration or cell number	5856
17	STC2	1	1.06	no change in migration or cell number	5483
18	STC2	2	1.17	no change in migration or cell number	5086
19	STC2	3	1.02	no change in migration or cell number	5760
20	STC2	4	1.1	no change in migration or cell number	5345
21	PPP1CA	1	0.55 (active)	migration reduced	5332
22	PPP1CA	2	0.53 (active)	migration reduced	5748
23	PPP1CA	3	-0.84	too few cells; migration not scored	3256
24	PPP1CA	4	0.7	no change in migration or cell number	5820
25	FBXL18	1	0.8	no change in migration or cell number	5326
26	FBXL18	2	0.74	no change in migration or cell number	7190
27	FBXL18	3	0.94	no change in migration or cell number	5662
28	FBXL18	4	0.82	no change in migration or cell number	5604
29	HMX1	1	-0.08	too few cells; migration not scored	2967
30	HMX1	2	0.52 (active)	migration reduced	5592
31	HMX1	3	1.07	no change in migration or cell number	7360
32	HMX1	4	0.7	no change in migration or cell number	6184
33	AXIN1	1	0.69	no change in migration or cell number	5354
34	AXIN1	2	1.06	no change in migration or cell number	6636
35	AXIN1	3	0.96	no change in migration or cell number	6740
36	AXIN1	4	0.85	no change in migration or cell number	5098
37	MTRFR	1	0.96	no change in migration or cell number	5874
38	MTRFR	2	1.03	no change in migration or cell number	5040
39	MTRFR	3	1.08	no change in migration or cell number	5376
40	MTRFR	4	1	no change in migration or cell number	6215
41	CENPO	1	0.74	no change in migration or cell number	5214
42	CENPO	2	0.88	no change in migration or cell number	5178
43	CENPO	3	1.08	no change in migration or cell number	5108
44	CENPO	4	0.41	too few cells; migration not scored	2483
45	IFNE	1	0.68	no change in migration or cell number	5462
46	IFNE	2	0.86	no change in migration or cell number	6410
47	IFNE	3	1.02	no change in migration or cell number	4670
48	IFNE	4	0.82	no change in migration or cell number	5014

6 neighbouring reagents from above, quoted:
no.	gene knocked down	reagent	migration relative to mock	migration and cell number class	mean nuclei count
22	PPP1CA	2	0.53 (active)	migration reduced	5748
23	PPP1CA	3	-0.84	too few cells; migration not scored	3256
24	PPP1CA	4	0.7	no change in migration or cell number	5820
25	FBXL18	1	0.8	no change in migration or cell number	5326
26	FBXL18	2	0.74	no change in migration or cell number	7190
27	FBXL18	3	0.94	no change in migration or cell number	5662
